Reference: the supplement of paper PMC11732987, “Enantioselective OTUD7B fragment discovery through chemoproteomics screening and high-throughput optimisation” (Communications Chemistry, 2025)
The list shows a part of the results. The data scatter; read single values as rough.

Chains of the proteins cited; added tags and fusions are not shown. Lines headed by an entry give the natural chain unless they say otherwise; changes in a name come on top.
UniProt P42694: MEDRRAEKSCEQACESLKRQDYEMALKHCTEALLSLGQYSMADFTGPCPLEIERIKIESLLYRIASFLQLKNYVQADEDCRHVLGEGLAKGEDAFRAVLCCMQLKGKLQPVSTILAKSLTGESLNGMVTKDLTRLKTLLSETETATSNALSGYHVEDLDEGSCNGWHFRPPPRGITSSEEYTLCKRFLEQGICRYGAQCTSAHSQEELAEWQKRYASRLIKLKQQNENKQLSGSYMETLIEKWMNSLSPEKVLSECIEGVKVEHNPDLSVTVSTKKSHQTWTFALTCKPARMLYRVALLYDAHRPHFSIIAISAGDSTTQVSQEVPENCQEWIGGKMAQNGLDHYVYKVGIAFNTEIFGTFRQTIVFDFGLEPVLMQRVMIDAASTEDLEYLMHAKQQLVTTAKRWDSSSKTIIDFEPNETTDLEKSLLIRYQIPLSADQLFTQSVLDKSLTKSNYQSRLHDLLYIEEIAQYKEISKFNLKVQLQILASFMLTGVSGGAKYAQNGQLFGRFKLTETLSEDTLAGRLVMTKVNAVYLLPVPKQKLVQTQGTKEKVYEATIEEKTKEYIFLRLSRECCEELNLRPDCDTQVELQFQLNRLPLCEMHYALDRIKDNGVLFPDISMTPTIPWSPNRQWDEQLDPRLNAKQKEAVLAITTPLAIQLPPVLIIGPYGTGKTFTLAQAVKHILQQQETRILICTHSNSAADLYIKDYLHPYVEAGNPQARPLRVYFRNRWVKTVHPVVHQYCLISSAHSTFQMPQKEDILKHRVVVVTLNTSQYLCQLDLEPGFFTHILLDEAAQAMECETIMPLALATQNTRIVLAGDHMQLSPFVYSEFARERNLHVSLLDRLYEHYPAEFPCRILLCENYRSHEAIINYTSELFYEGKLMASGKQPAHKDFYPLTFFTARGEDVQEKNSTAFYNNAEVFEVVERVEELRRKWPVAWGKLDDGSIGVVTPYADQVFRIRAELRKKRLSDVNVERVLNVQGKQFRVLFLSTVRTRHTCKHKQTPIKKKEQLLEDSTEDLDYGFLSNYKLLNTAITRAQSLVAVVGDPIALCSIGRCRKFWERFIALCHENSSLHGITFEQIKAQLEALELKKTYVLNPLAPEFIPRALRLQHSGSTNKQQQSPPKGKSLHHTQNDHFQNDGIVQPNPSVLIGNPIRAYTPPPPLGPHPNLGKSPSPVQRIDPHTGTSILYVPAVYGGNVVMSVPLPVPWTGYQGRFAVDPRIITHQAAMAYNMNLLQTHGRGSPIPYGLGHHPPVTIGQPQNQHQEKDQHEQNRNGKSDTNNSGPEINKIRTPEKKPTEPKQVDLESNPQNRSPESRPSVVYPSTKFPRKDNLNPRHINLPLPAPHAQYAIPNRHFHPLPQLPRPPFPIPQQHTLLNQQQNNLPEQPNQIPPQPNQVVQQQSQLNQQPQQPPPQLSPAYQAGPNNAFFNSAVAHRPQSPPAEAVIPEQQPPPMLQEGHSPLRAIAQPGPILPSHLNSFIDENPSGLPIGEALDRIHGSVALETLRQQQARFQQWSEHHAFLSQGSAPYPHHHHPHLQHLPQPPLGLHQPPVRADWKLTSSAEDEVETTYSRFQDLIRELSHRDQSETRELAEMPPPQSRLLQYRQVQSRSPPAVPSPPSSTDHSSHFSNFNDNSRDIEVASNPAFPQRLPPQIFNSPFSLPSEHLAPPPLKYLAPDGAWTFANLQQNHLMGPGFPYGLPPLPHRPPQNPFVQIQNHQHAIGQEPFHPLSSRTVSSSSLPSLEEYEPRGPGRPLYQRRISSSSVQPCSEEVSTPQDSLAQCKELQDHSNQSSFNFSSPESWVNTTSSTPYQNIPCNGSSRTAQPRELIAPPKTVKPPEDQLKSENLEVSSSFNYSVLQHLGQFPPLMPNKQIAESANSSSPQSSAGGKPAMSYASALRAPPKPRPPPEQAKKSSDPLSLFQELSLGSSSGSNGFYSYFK
UniProt Q01581: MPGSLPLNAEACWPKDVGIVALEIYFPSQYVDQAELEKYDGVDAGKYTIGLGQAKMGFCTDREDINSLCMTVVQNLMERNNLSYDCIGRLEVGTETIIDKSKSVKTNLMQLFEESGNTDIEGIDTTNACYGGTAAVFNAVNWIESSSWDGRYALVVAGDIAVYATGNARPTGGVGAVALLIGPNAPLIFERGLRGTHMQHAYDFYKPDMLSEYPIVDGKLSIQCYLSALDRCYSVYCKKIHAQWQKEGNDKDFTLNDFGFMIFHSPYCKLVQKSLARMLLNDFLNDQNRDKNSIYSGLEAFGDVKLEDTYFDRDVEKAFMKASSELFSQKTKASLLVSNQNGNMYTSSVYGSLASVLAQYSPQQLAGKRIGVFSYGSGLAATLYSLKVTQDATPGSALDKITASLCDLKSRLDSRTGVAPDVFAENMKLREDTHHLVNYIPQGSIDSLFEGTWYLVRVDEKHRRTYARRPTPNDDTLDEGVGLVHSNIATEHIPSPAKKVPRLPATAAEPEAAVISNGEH
UniProt P78347: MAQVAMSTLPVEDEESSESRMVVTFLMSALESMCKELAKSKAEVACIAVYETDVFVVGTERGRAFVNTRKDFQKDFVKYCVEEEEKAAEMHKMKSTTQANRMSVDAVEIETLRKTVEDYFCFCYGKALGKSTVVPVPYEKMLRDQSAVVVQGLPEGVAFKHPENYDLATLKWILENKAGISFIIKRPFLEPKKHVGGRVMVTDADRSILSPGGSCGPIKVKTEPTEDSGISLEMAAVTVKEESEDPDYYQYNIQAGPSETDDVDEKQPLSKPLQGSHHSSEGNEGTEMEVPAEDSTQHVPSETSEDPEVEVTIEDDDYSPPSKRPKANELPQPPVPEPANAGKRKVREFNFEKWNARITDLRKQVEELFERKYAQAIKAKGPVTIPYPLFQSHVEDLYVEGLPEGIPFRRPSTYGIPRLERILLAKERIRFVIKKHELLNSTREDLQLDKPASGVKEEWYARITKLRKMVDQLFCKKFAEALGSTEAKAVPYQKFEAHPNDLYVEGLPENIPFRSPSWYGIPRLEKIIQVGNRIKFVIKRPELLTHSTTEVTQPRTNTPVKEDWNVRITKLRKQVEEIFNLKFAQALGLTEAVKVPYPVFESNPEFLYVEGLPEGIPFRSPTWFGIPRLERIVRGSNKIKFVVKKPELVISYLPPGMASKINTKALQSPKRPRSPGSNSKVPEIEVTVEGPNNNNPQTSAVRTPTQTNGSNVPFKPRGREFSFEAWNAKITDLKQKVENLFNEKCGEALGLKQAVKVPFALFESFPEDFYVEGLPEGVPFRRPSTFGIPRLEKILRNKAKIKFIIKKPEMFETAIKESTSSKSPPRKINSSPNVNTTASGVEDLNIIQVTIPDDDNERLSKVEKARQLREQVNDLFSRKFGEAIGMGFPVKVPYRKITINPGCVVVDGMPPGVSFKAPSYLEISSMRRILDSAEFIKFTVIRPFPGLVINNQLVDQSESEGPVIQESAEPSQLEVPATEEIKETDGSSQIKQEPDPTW
UniProt Q7Z4H7: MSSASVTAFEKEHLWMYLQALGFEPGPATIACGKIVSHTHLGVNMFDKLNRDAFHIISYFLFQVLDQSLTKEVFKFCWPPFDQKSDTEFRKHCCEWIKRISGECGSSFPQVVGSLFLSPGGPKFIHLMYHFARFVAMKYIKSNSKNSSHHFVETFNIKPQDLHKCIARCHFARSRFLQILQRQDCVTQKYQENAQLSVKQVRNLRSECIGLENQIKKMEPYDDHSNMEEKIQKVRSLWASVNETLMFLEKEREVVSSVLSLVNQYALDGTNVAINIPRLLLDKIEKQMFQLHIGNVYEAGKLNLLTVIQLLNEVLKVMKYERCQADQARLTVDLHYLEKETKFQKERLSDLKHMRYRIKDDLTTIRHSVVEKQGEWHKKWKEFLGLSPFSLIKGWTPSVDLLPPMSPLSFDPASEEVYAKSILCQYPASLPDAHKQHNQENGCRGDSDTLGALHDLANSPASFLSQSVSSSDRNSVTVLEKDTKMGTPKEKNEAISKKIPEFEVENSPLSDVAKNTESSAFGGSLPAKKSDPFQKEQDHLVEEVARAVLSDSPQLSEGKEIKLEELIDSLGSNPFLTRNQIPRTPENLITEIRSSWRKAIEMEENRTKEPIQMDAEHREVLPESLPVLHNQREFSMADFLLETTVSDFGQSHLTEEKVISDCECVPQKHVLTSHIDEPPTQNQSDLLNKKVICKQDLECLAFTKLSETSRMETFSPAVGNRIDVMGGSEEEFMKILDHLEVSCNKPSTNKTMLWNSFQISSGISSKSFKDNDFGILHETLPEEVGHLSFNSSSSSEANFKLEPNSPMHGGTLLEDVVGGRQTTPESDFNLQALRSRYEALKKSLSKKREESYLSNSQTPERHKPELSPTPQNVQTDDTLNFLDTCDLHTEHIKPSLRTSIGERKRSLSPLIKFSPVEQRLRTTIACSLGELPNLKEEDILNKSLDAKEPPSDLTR
UniProt Q96FZ2: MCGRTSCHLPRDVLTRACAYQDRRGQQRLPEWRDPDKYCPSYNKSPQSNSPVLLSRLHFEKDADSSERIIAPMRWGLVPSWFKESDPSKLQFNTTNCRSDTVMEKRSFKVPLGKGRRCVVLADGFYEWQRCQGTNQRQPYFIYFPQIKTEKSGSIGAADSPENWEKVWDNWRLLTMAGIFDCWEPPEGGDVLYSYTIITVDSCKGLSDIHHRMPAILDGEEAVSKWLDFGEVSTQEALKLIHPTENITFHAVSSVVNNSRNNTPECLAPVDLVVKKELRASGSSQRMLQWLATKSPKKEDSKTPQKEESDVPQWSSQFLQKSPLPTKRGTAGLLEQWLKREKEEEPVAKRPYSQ
UniProt Q9BT25: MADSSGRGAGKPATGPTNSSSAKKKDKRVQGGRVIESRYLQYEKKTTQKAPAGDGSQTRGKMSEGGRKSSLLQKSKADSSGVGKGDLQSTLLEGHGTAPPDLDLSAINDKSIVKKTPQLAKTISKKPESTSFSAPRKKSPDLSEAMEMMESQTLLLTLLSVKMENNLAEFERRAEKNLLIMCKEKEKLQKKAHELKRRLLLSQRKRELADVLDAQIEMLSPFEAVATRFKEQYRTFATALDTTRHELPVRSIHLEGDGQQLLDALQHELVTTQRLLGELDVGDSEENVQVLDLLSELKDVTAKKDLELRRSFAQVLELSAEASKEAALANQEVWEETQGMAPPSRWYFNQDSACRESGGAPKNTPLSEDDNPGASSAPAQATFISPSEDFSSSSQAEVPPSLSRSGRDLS
UniProt O14964: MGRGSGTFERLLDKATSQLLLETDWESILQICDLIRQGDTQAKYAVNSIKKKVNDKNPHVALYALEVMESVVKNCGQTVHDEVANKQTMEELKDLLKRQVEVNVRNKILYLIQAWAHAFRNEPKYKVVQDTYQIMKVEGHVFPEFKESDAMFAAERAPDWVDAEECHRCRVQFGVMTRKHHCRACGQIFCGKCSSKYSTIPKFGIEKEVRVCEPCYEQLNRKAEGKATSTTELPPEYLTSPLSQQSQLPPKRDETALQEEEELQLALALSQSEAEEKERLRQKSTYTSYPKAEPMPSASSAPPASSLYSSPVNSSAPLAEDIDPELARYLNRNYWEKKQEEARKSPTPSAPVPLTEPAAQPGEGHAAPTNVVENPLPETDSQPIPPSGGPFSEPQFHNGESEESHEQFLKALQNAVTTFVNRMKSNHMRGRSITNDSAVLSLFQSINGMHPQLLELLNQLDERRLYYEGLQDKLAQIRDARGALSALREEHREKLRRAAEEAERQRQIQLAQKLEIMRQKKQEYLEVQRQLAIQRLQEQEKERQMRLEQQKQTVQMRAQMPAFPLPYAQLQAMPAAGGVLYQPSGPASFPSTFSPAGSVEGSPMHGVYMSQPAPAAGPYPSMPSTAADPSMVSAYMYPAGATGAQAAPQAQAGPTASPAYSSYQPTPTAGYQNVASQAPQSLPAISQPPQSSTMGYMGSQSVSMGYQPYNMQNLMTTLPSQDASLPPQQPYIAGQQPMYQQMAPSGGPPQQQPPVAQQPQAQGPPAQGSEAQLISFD
UniProt Q16774: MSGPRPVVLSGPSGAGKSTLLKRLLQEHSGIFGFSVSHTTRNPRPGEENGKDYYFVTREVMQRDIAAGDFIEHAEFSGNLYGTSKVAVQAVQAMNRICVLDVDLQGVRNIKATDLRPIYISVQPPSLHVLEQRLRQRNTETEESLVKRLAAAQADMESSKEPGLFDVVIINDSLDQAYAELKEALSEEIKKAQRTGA
UniProt Q14469: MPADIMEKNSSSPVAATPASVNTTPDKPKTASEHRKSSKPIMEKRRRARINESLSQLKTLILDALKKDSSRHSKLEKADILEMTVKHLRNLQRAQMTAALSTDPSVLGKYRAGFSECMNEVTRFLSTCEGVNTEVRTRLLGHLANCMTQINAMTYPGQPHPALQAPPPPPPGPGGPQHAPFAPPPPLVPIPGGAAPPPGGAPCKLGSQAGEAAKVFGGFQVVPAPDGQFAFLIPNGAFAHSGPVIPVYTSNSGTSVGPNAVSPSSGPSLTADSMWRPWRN

How the values were obtained:
[1] = compound: ClCC(=O)N[C@@H]1CCCc2ccccc12; assay: log2 mean competition ratio of IA-DTB cysteine labelling (DMSO/compound) (log2 ratio); higher = stronger cysteine engagement by compound; settings: treatment time: 4 h, cell line lysate: HEK293T
Procedure: (§1)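 IA-DTB competitive cysteine chemoproteomics in HEK293T RIPA lysate. Lysates were treated with compound 29 or 30 at 50 or 200 µM for 4 h, then IA-DTB (500 µM, 1 h), trypsin-digested, NeutrAvidin-enriched and analysed by diaPASEF. Competition ratio = intensity DMSO / intensity compound (n=4 treated, n=64 DMSO); binding: mean log2 CR ≥ 1 and p ≤ 0.05 plus QC filters. Target is the cysteine site.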

[2] = compound: ClCC(=O)N[C@H]1CCCc2ccccc12; assay: as above; settings: treatment time: 4 h, cell line lysate: HEK293T
Procedure: as §1

Row | Target | log2 mean competition ratio ([1]; 50 µM) | log2 mean competition ratio ([1]; 200 µM) | log2 mean competition ratio ([2]; 50 µM) | log2 mean competition ratio ([2]; 200 µM)
1 | GXYLT1 C414 (UniProt Q4G148) | 0.0513 | -0.338 | 0.0877 | -0.269
2 | GTF2E2 C208 (UniProt P29084) | 0.331 | 0.139 | 0.531 | 0.114
3 | HELZ C863 (UniProt P42694) | -0.0148 | -0.0749 | -0.0823 | -0.0795
4 | HECTD4 C3916 | 0.0326 | -0.13 | -0.296 | 0.0338
5 | HMGCS1 C86 (UniProt Q01581) | 0.581 | -0.193 | 0.517 | -0.239
6 | GTF2I C475 (UniProt P78347) | 0.0636 | 0.144 | 0.243 | 0.285
7 | HECW2 C224 (UniProt Q9P2P5) | 0.927 | -0.032 | 0.315 | -0.44
8 | HNRNPM C694 | 0.243 | 0.0192 | 0.289 | 0.0206
9 | GSTO1 C192 | -0.337 | -0.882 | -0.442 | -0.807
10 | HAUS6 C699 (UniProt Q7Z4H7) | -0.0282 | 0.0833 | 0.0511 | 0.312
11 | HMCES C131 (UniProt Q96FZ2) | 0.032 | 0.0387 | -0.0483 | 0.112
12 | GULP1 C101 (UniProt Q9UBP9) | 0.0605 | 0.0832 | -0.151 | 0.0253
13 | HAUS8 C182 (UniProt Q9BT25) | 0.0629 | 0.0802 | 0.252 | 0.113
14 | GTF2I C215 (UniProt P78347) | -0.0441 | -0.234 | 0.0927 | -0.138
15 | HLA-C C125 | -0.139 | 0.198 | -0.102 | 0.286
16 | HID1 C85 | 0.0331 | 0.353 | 0.0159 | 0.0632
17 | HGS C166 (UniProt O14964) | -0.178 | 0.166 | -0.604 | 0.144
18 | GUK1 C98 (UniProt Q16774) | -0.329 | 0.0866 | -0.494 | -0.129
19 | HEATR5B C625 (UniProt Q9P2D3) | 0.357 | 0.0599 | -0.0877 | 0.0278
20 | HAT1 C27 (UniProt O14929) | -0.0581 | -0.107 | 0.0502 | 0.164
21 | HES1 C128 (UniProt Q14469) | -0.129 | -0.031 | -0.227 | -0.0834
22 | HNRNPH2 C22 (UniProt P55795) | 0.369 | -0.179 | 0.601 | -0.00735
23 | GSTK1 C176 (UniProt Q9Y2Q3) | -0.104 | 0.291 | 0.0751 | 0.365
24 | HOXA5 C103 | -0.0609 | -0.0308 | 0.169 | -0.22

Pulled one by one from the list above, 2 records:
Row | Target | log2 mean competition ratio ([1]; 50 µM) | log2 mean competition ratio ([1]; 200 µM) | log2 mean competition ratio ([2]; 50 µM) | log2 mean competition ratio ([2]; 200 µM)
7 | HECW2 C224 (UniProt Q9P2P5) | 0.927 | -0.032 | 0.315 | -0.44
13 | HAUS8 C182 (UniProt Q9BT25) | 0.0629 | 0.0802 | 0.252 | 0.113
